# Experimental data reported in patent US20250263774A1, “DISCOVERING NEW XENOBIOTIC SUBSTRATES OF AN UDP-GLYCOSYLTRANSFERASE WITH A HIGH-THROUGHPUT METHOD” (priority 2024, published 2025).
# Some of these results come from one statement about several compounds together.
# System: UGT71G1
# Test: High-throughput fluorescent assay for screening candidates of UGT glycosylation (UDP release, MicroMolar UDP assay kit)
# Assay type: biochemical, Medicago truncatula
# Conditions: 6 μg UGT71G1, UDP-glucose 50 μM, substrate candidate 0.8 to 160 μM, 37° C. 45 minutes, ex 485 nm / em 535 nm
smiles,measurement,value
"CC(C)(c1ccc(O)cc1)c1ccc(O)cc1 [Sample 135, Bisphenol A]","fold increase in fluorescent signal / fluorescence intensity with UGT71G1, comparing to the condition without UGT71G1",over 25 fold
